Results reported in PubChem BioAssay AID504467 (National Center for Advancing Translational Sciences (NCATS), 2011).
The whole screen tested about 330,000 compounds, of which about 7,700 (2.3%) were called active. Inconclusive means that the source gave no clear call. Such entries were picked first, then a sample of the others. Calls follow the shape of the dose curve; as a rule, active = well fitted inhibition curve with a large enough effect; inconclusive = small, poorly fitted or top-dose-only effect, or effect the other way; inactive = flat fitted curve, though single readings scatter. Where the call is inconclusive, the potency comes from a doubtful curve fit. Non-standard residues stand in square brackets, D forms with d. Residues, ends and D or L forms follow the SMILES beside them. ξ: configuration not given here. *: point of attachment. ξY = NC(Cc1ccc(O)cc1)C(=O)O; Cbz = O=C(OCc1ccccc1)*; OtBu = CC(C)(C)O*; tBu = CC(C)(C)*

assay: qHTS screen for small molecules that inhibit ELG1-dependent DNA repair in human embryonic kidney (HEK293T) cells expressing luciferase-tagged ELG1; conditions: HEK293T ELG1-luciferase reporter, luminescence, 16 h, DNA damage induced by 5-fluorouridine; activity change, negative = inhibition: at 46.1 µM (top of the series); also: nearly all actives have a fitted effect of over 55% in size
Outline: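 Cells (2,000 per well) received 5-fluorouridine plus test compound or DMSO and were incubated 16 hr at 37 °C, 5% CO2. Luciferase activity was read by luminescence 30 min after ONE-Glo addition; signal suppression marked inhibition of damage-induced ELG1 function.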
% is scaled to controls: 0 for no effect and ±100 for the full control effect; potency is read from the fitted curve at half-maximal effect.

Structure (SMILES) | Potency | activity change, negative = inhibition
O=C(OC1CCOC1=O)c1cc(Cl)ccc1[N+](=O)[O-] (stereo not given) | inconclusive: 1.16 µM [inhibitor, single point] | –
CCCN(Cc1ccccc1)C(=S)Nc1cccc(C(F)(F)F)c1 | – | inactive: -6.62%
Cc1cc(C(F)(F)F)n2ncc(-c3ccc(F)cc3)c2n1 | – | inactive: 0.183%
COc1ccc(CC(=O)OCC(=O)c2c[nH]c3ccccc23)cc1 | inconclusive: 0.259 µM [activator, single point] | –
CCCCn1nc2cc(C(=O)NCc3ccccc3)ccc2c1OCC | – | inactive: -17.6%
Cc1cc(F)ccc1NC(=O)c1cc(S(=O)(=O)N2CCc3ccccc32)cn1C | inconclusive: 25.9 µM [inhibitor, partial curve] | –
COC(=O)c1sc(NC(=O)c2cc(C)on2)nc1C | inconclusive: 14.6 µM [activator, partial curve] | –
Cc1cc(-c2nnc3n2N=C(c2ccc(F)cc2)CS3)n[nH]1 | inconclusive: 25.9 µM [activator, partial curve, poor fit] | –
COc1cccc(NC(=O)COC(=O)c2cc(S(=O)(=O)N3CCOCC3)ccc2C)c1 | active: 16.4 µM | –
COc1ccc(Cn2nnnc2CN2CCC(O)(c3ccccc3F)CC2)cc1 | inconclusive: 23.1 µM [inhibitor, single point] | –
O=C(CO/N=C/c1ccc(OC(F)F)cc1)NCc1ccco1 | – | inactive: 27.4%
CCN1C(=O)[C@H]2[C@@H](c3ccc(C)cc3)N3C(=O)N(c4ccccc4)C(=O)[C@@]3(CC)[C@H]2C1=O | inconclusive: 5.8 µM [activator, single point] | –
O=C(Nc1ccc(-c2cn3ccsc3n2)cc1)c1ccc(F)c(S(=O)(=O)N2CCOCC2)c1 | active: 16.4 µM | –
CC(=O)NCCc1ccc(C(=O)COC(=O)c2cccn2C)cc1 | inconclusive: 18.3 µM [activator, single point] | –
CN1CCc2cc(O)c(O)cc2C(c2ccccc2)C1 (stereo not given) | – | inactive: 15.9%
Cc1cc(NC(=O)c2ccco2)ccc1NC(=O)c1ccco1 | inconclusive: 23.1 µM [activator, partial curve] | –
O=C(Nc1ccc2c(c1)OCO2)c1cccc(Cl)c1 | inconclusive: 11.6 µM [activator, partial curve] | –
CCCCN1/C(=C/c2ccc3ccccc3[n+]2CC)Sc2ccccc21 | inconclusive: 2.91 µM [inhibitor, partial curve] | –
Clc1ccccc1Cn1nnc2c(NCC3CC3)ncnc21 | inconclusive: 20.6 µM [inhibitor, single point] | –
COC(=O)c1cc(S(=O)(=O)N2CCN(c3ccc([N+](=O)[O-])cc3)CC2)c[nH]1 | active: 16.4 µM | –
C#CCn1cnc2c(cnn2-c2ccc(C)c(C)c2)c1=O | inconclusive: 18.4 µM [activator, partial curve] | –
CC1CN(C(=S)Nc2ccc(Cl)cc2)CC(C)O1 (stereo not given) | – | inactive: 7.4%
CC1(C)N=C(N)NC(Nc2ccccc2Cl)=N1 | – | inactive: 13.3%

Structure (SMILES) | Potency | activity change, negative = inhibition
O=P(c1ccccc1)(c1ccccc1)c1ccc(O)cc1 | – | inactive: -6.06%
CCOC(=O)c1ccc(NC(=O)CC2COc3ccccc3O2)cc1 (stereo not given) | – | inactive: -11.6%
COc1ccc(C(=O)NC2CC2)cc1OC1CCN(C(C)CSC)CC1 (stereo not given) | – | inactive: 14.5%
CC(C)NC(=S)N/N=C1\CCCCc2ccccc21 | inconclusive: 25.9 µM [inhibitor, single point] | –
COc1cc2c(cc1OC)C(C(C)C)=NC(C)(C)C2 | inconclusive: 18.4 µM [activator, partial curve, poor fit] | –
CO/N=C/c1ccc(N2CCN(C(=O)c3cccc(Cl)c3)CC2)c([N+](=O)[O-])c1 | inconclusive: 29.1 µM [inhibitor, single point] | –
Cc1cc(C)nc(Nc2nc(C)c3cc4c(cc3n2)OCO4)n1 | inconclusive: 20.6 µM [inhibitor, partial curve, poor fit] | –
CC(CC(F)(F)F)N1CCC(n2nccc2NC(=O)CCCc2ccccc2)CC1 (stereo not given) | – | inactive: -4.87%
Cc1nc2ccc(NC(=O)N3CCSCC3)cc2nc1C | inconclusive: 4.61 µM [inhibitor, single point] | –
O=C1N/C(=C/c2ccsc2)C(=O)N1c1ccccc1 | inconclusive: 13 µM [activator, partial curve] | –
O=C(Cc1ccc(Cl)cc1)N/N=C/c1c(Cl)cccc1Cl | inconclusive: 20.6 µM [activator, single point] | –
CCC(CNc1cc(OC)cc2cccnc12)NC1CCCCC1 (stereo not given) | – | inactive: -29.6%
CCOC(=O)[C@H]1[C@H]2COc3ccc(Br)cc3[C@@H]2N2C(=O)CN(Cc3ccc(F)cc3)C(=O)[C@@]12C | inconclusive: 18.3 µM [inhibitor, single point] | –
CC1(C)Cc2c(sc(NC(=O)c3ccc(C(=O)c4ccccc4)cc3)c2C(N)=O)C(C)(C)N1 | inconclusive: 29.1 µM [inhibitor, single point] | –
CC1Cc2ccccc2N1CC(=O)Nc1cccc(S(N)(=O)=O)c1 (stereo not given) | inconclusive: 5.17 µM [inhibitor, partial curve] | –
COc1ccc(-c2cn(-c3ccc(C)cc3)c(=O)n2CC(=O)Nc2ccc(OC)cc2OC)cc1 | inconclusive: 18.4 µM [inhibitor, single point] | –
CC(C)(C)OC(=O)C(Cc1ccc(OC(C)(C)C)cc1)NC(=O)CNC(=O)CNC(=O)OCc1ccccc1 (stereo not drawn) (Cbz-Gly-Gly-[ξY](tBu)-OtBu) | inconclusive: 25.9 µM [inhibitor, partial curve] | –
Cc1ccccc1COC(=O)c1cc([N+](=O)[O-])ccc1N1CCOCC1 | – | inactive: -15.9%
Cc1nc(C)c(C(=O)C2=C(O)C(=O)N(CCN3CCOCC3)C2c2cccs2)s1 (stereo not given) | inconclusive: 16.4 µM [activator, partial curve, poor fit] | –
CCOc1ccc(/C=C/C(=O)c2ccccc2)cc1OC | inconclusive: 20.6 µM [activator, partial curve] | –
CC(=O)Nc1ccc2nc(-c3ccc(Br)o3)[nH]c2c1 | inconclusive: 16.4 µM [activator, partial curve] | –
CCN(CC)CCn1c(NC(=O)c2ccc(C(F)(F)F)cc2)nc2ccccc21 | inconclusive: 6.51 µM [activator, partial curve, poor fit] | –

A draw from above in order of count of non-hydrogen atoms, descending.
Structure (SMILES) | Potency | activity change, negative = inhibition
CO/N=C/c1ccc(N2CCN(C(=O)c3cccc(Cl)c3)CC2)c([N+](=O)[O-])c1 | inconclusive: 29.1 µM [inhibitor, single point] | –
O=P(c1ccccc1)(c1ccccc1)c1ccc(O)cc1 | – | inactive: -6.06%
CC(C)NC(=S)N/N=C1\CCCCc2ccccc21 | inconclusive: 25.9 µM [inhibitor, single point] | –
